Data reported in paper PMC10494373.
Results are given in words; binding and its absence hold for the method and conditions named. In cells and extracts the contact can be indirect. A result given as binding can be weak or reduced; the word gives no strength. One block for each molecule: values may come before it.

Legend:
[1] = biological target: T1, catalase (CAT) (mouse (endogenous in mouse bone marrow-derived EPCs)) (UniProt P24270); test: co-IP; total protein of treated EPCs (2 x 10^7) in RIPA lysis buffer, precleared with rabbit IgG and Protein A+G agarose; IP with rabbit anti-catalase overnight at 4 C and blot with anti-p20, and the reverse (blot with anti-catalase)
T1 sequence: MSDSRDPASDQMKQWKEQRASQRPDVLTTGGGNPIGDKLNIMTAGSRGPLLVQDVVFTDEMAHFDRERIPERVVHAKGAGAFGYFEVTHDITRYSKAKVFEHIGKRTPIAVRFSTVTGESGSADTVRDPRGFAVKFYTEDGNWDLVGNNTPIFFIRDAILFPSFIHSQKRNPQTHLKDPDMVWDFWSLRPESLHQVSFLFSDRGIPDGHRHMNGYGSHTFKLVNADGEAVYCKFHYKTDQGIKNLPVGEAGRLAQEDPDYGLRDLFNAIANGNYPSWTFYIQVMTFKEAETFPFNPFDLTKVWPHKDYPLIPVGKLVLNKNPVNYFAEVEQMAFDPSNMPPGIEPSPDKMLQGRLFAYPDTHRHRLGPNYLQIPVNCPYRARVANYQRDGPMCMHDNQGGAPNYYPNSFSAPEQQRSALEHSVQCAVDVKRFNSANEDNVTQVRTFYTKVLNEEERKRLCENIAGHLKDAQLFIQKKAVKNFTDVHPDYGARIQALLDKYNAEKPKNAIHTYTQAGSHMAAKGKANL

[2] = biological target: active caspase-1 (p20) (mouse (endogenous in mouse bone marrow-derived EPCs)); test: as above

binding [1]: binds
Molecule: active caspase-1 (p20) (enzyme)

binding [2]: binds
B1: catalase (CAT) (enzyme, UniProt P24270 1-527)
chain: T1 sequence
